Reference: paper PMC12618784
No constants are given. Whether binding was seen depends on the method and setting. In cells and extracts the contact can be indirect. Some results given as binding are weak or reduced against the parent protein; the word gives no strength. Sequences can lack the tags named with a protein.

Molecular target: T1, Dmel\Tmem43wt::GFP (Drosophila) (UniProt Q9VSB9)
T1 sequence: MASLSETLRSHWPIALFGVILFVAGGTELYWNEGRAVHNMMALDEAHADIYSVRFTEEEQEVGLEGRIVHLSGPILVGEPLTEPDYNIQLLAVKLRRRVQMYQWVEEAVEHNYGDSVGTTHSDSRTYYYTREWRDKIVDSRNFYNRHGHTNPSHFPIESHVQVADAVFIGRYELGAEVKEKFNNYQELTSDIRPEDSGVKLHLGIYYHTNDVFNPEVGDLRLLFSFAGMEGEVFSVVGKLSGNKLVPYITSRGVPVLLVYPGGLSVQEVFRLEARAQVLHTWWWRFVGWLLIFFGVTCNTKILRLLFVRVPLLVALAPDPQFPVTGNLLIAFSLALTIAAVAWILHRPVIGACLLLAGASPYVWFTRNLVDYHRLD
Assay: co-IP; Sf21 cells co-expressing Porin::HA and Dmel\Tmem43::GFP constructs; anti-GFP coupled magnetic beads; Western blot, Porin::HA normalised to precipitated Dmel\Tmem43

binding: binds
B1: Porin::HA (protein, UniProt Q94920 1-282)
chain: MAPPSYSDLGKQARDIFSKGYNFGLWKLDLKTKTSSGIEFNTAGHSNQESGKVFGSLETKYKVKDYGLTLTEKWNTDNTLFTEVAVQDQLLEGLKLSLEGNFAPQSGNKNGKFKVAYGHENVKADSDVNIDLKGPLINASAVLGYQGWLAGYQTAFDTQQSKLTTNNFALGYTTKDFVLHTAVNDGQEFSGSIFQRTSDKLDVGVQLSWASGTSNTKFAIGAKYQLDDDASVRAKVNNASQVGLGYQQKLRDGVTLTLSTLVDGKNFNAGGHKIGVGLELEA
